Results taken from publication PMC3394785.
These are yes or no findings as the source states them, for the method shown. Binding seen in cells or lysates may run through a third protein. Some entries that bind do so weakly or less than the wild type. Where a sequence is shown, tags or fusion partners need not be part of it.

By UniProt entry, the sequences of proteins in these tests, tags left out.
UniProt O46674: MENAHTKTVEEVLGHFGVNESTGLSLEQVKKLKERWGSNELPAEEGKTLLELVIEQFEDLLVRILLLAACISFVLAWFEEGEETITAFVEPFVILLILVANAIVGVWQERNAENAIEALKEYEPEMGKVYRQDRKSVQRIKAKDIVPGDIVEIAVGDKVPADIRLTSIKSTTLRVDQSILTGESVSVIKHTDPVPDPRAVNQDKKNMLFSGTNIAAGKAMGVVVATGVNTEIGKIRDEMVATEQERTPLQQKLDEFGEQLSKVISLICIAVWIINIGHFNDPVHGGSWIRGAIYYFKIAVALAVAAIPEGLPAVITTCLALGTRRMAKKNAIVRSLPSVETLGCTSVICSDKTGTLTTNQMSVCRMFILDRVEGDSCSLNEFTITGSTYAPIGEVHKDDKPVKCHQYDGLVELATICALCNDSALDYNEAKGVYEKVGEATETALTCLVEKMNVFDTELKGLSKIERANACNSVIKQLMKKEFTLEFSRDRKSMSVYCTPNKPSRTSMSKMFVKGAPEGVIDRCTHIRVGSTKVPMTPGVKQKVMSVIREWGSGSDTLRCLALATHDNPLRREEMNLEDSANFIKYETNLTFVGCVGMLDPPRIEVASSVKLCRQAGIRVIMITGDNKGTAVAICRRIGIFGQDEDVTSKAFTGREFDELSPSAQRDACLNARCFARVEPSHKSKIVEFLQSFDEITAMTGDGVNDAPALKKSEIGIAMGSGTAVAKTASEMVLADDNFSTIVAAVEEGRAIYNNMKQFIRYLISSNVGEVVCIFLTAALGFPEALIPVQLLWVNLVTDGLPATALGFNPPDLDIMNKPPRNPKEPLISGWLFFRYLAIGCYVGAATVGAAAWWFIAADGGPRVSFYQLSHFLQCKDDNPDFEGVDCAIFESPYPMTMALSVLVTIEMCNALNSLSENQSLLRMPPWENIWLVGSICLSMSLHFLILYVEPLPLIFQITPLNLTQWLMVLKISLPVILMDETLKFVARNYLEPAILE

Biological target: Cer-SERCA2a (mCerulean fused to the N-terminus of canine SERCA2a) (canine) (UniProt O46674)
Assay: FRET or BRET; intermolecular FRET in live AAV-293 cells, E-FRET (3-cube) method, widefield microscopy; donor Cer-SERCA, acceptor YFP-PLB; FRET against protein expression level

binding: binds
B1: YFP-PLB (phospholamban with a YFP tag) (protein, UniProt P61012 1-52)
chain: MDKVQYLTRSAIRRASTIEMPQQARQNLQNLFINFCLILICLLLICIIVMLL
